The record followed here is PMC5705681.

These are yes or no findings as the source states them, for the method shown. A result given as binding can be weak or reduced; the word gives no strength.

Holding throughout (assay): two-hybrid; Giles ORFs as baits in pGBGT7g (yeast AH109) against a random genomic fragment prey library of M. smegmatis mc2155 in pGADT7g (yeast Y187); positives retested by array-based Y2H with freshly prepared prey clones; background suppressed by 3-AT
Assay [1] addresses Mycobacteriophage Giles gp47, phage repressor (putative repressor) (mycobacteriophage Giles).
In assay [2] the target is Mycobacteriophage Giles gp31, endolysin (LysinA) (mycobacteriophage Giles).
Assay [3] addresses Mycobacteriophage Giles gp29, phage integrase (mycobacteriophage Giles).

B1: Cyclododecanone Monoxygenase (MSMEG_5625), fragment 243-375 (domain or fragment, UniProt A0R3X1 243-375)
chain: LHDKKVALIGTGATGVQLVPYLGRDAQHLYVFQRTPSTVDERNNTPTDPEWVKTLQPGWQKERQRNFHAWTFEGMALGQPDLVCDFWTELGRNTAARVMALEDPASMTPEQFMAIREEEDYKVMERLRRRVDQ
For the molecule B1, the binding entry in assay [1] is reported as “binds”.

B2: sugar ABC transporter substrate-binding protein (PBP_Type 2 superfamily) (MSMEG_5574), fragment 64-181 (domain or fragment, UniProt A0R3S1 64-181)
chain: LRFVTLSENQARAKITASTAMGGGEFDVVMISNYETPQWAENGWLVDLSDYARNTPGYDEDDFIPSLKDSLSYQGDMYSVPFYGESSFLMYRKDLFEQAGIEMPRTPTWQQVADAAAE
As for B2, the binding entry in assay [2] was “binds”.

B3: universal stress protein (MSMEG_3811), fragment 1-101 (domain or fragment, UniProt A0QYW6 1-101)
chain: MSAYQTVVVGTDGSDSSLRAVDRAGQIAAASNAKLIIATAYFPQSEDSRAADVLKDEGYKMAGNAPIYAILREANDRAKAAGATDIEERPVVGAPVDALVE
On to B3, for which the binding entry in assay [1] is “binds”.

B4: TetR family transcriptional regulator (MSMEG_2071), fragment 25-182 (domain or fragment, UniProt A0QU44 25-182)
chain: FAERGFHGTTLADITSAAGKSPAVFYRYFTDKEDLLAALAESFLHDVVEPSGLNLHLPDSPDDAEFFTSVVTGYWNMFKQNIGIMIAVAQLAATQQRFAEVQNSFRRFGIDIVVASVRRAQEQGHAVGLVPEHIGAAIALLFENFTTVFVGSSGLGVE
As for B4, in assay [2], the binding entry is “binds”.

B5: phosphoadenosine phosphosulfate reductase (MSMEG_1245), fragment 42-232 (domain or fragment, UniProt A0QRU8 42-232)
chain: LPETYEYLDRLETALGKPIARLNARKGFDHWFEVYRGTLPSPQMRWCTKKMKIEPLEEWIGDDYAVSYVAIRADEAGRKGYVSTKPNIRTVLPFVEGGIDHDGVLRILDEAGIGLPKYYEWRTRSGCYFCFYQRKAEWVGLAEKHPELLHRAIAIEAKVRQDAGADGDASFGEYAMKGRQYTWSGGESLPE
As to B5, in assay [1], the binding result was “binds”.

B6: 50 S ribosomal protein L450S ribosomal protein L23 (MSMEG_1438), first 85 residues (domain or fragment, UniProt A0QSD3 1-85)
chain: MATITDPRDIILAPVISEKSYGLIEDNVYTFVVHPDSNKTQIKIAIEKIFDVKVDSVNTANRQGKRKRTRTGFGKRKSTKRAIVK
In the case of B6, the binding result in assay [3] was “binds”.

B7: conserved hypothetical protein/sugar transporter (MSMEG_2001), fragment 142-219 (domain or fragment, UniProt A0QTX7 142-219)
chain: MLGEIFPNSYRGPALAVAVAVQWIANFVVTVTFPPFAALSLPLSYCFYSACALLSALFVLRFVRETKGRELEEMDDIA
For the molecule B7, the binding result in assay [3] was “binds”.

B8: Putative ribosylglycohydrolase (MSMEG_1272), fragment 1-132 (domain or fragment, UniProt A0QRX4 1-132)
chain: MGSSRIELTAAQRDRAVGVLLGAAAGDALGAGYELNRPLAPDHPVGMIGGGLGPFAPGEWTDDTSMAIAIAEIASTGEDLRKEKPLDYLVERWEWWSRTAPDVGVQTRTVLSETAARGLCAQTARAVSEELH
B8: the binding result in assay [1] is “binds”.
